Assay results taken from US20220110902A1, “Methods of treating amyloid-beta peptide diseases” (Ecole Polytechnique Federale de Lausanne, priority 2016, published 2022).
At least one compound was matched to its structure with a doubt left.

Assays:
GMC101 worms [1] = test: Worm phenotypic assays in GMC101: mobility, paralysis and death score; assay type: in vivo, C. elegans
Description: Doxycycline was obtained from Sigma-Aldrich and dissolved in water. For experiments, a final concentration of 15 μg/mL was used. Olaparib (AZD2281) was dissolved in DMSO to experimental concentrations of 300 nM. Nicotinamide Riboside triflate (NR) was custom synthesized by Novalix (www.novalix-pharma.com/) and dissolved in water, and used at a final concentration of 1 mM. Compounds were added just before pouring the plates. For phenotyping experiments, parental F0 L4 worms were allowed to reach adulthood and lay eggs on the treatment plates. The deriving F1 worms were therefore exposed to compounds during the full life from eggs until death. For RNA analysis experiments, synchronized L1 worms were exposed to the compounds until harvest. To ensure a permanent exposure to the compound, plates were changed twice a week.
Mobility: C. elegans movement analysis was performed as described, starting from day 1 of adulthood, using the Movement Tracker software. The experiments were repeated at least twice.
Paralysis and death score: 5 L4 worms per condition were allowed to reach adulthood and lay eggs on the treatment plates. 45 to 60 deriving F1 worms per condition were manually scored for paralysis after poking, as already described. Worms that were unable to respond to any, repeated stimulation, were scored as dead. Results are representative of the data obtained in at least three independent experiments.
During the assays, animals were exposed to Myriocin (dissolved in DMSO) from the egg stage on plates seeded with live HT115 E. coli bacteria. Control plates seeded with the same bacteria were prepared with the corresponding concentrations of DMSO. […]
To score for paralysis and death, 50 worms per condition were manually scored after poking as described (McCool et al., 2012; Florez-McClure et al., 2007). Worms that were unable to respond to repeated stimulation were scored as dead. […]

GMC101 worms [2] = test: Western-blot of amyloid aggregation in GMC101 worms; assay type: in vivo, C. elegans; settings: GMC101, day 1 of adulthood; dox 15 μg/mL, NR 1 mM, AZD 300 nM
Description: C. elegans: Worms were lysed by sonication with RIPA buffer containing protease and phosphatase inhibitors (Roche), and analyzed by SDS-PAGE and western blot. The concentration of extracted protein was determined by using the Bio-Rad Protein Assay. Proteins were detected using the following antibodies: anti-β-actin (Sigma), anti-tubulin (Santa Cruz), atp-5, ucr-1 (Oxphos cocktail, Abcam), anti-β-Amyloid, 1-16 (6E10) (BioLegend). In addition to the housekeeping proteins, loading was monitored by Ponceau Red to ensure a homogeneous loading. Pixel intensity was quantified by using ImageJ software. […]
(§1) Worms were lysed by sonication with RIPA buffer containing protease and phosphatase inhibitors (Roche), and analyzed by western blot. The concentration of extracted protein was determined by the Bio-Rad Protein Assay. Proteins were detected using the following antibodies: anti-β-actin (Sigma) and anti-β-Amyloid (BioLegend). In addition to the housekeeping proteins, loading was monitored by Ponceau Red to ensure a homogeneous loading. […]
as §1, with “proteins” for “protein”, “(BioLegend).” for “(BioLegend). In addition to the housekeeping proteins, loading was monitored by Ponceau Red to ensure a homogeneous loading.”

SMILES: C[C@H]1c2cccc(O)c2C(=O)C2=C(O)[C@]3(O)C(=O)C(C(N)=O)=C(O)[C@@H](N(C)C)[C@@H]3[C@@H](O)[C@@H]21 [dox, doxycycline]
- fitness/healthspan and lifespan (mobility, paralysis, death) (GMC101 worms [1]; GMC101, mobility from day 1 of adulthood, paralysis and death at day 8, dox 15 μg/mL, NR 1 mM, AZD 300 nM): impacted beneficially on fitness and lifespan
- dependence of motility and Aβ clearance benefits on atfs-1 (GMC101 worms [1]; GMC101 upon atfs-1 RNAi feeding): required atfs-1
- dependence of health-, lifespan and proteostasis benefits on dct-1 (GMC101 worms [1]; GMC101 upon dct-1 RNAi feeding): blunted the positive effects
- Aβ aggregation (proteotoxic stress) (GMC101 worms [2]): reduced
